Values of other authors as cited in patent US4957926A, “Method of treating herpesviruses” (priority 1988, dated 1990).
At least one structure is not confirmed: it was looked up by name or label, or the drawing left a doubt.

System: HIV
Details: Tyms et al., Lancet, 1987; cited from earlier work

SMILES: OC[C@H]1N[C@H](CO)[C@@H](O)[C@@H]1O [DMDP, dihydroxymethyldihydroxypyrrolidine]
- block of HIV growth (in words): found to block the growth of the AIDS-associated virus HIV
